Test results reported in paper doi:10.1101/2023.04.18.537143.
Results are given in words; binding and its absence hold for the method and conditions named. In cells and extracts the contact can be indirect. These calls come from enrichment with a bait or labelling near it, and not all partners need be listed. For some assays here: A no says only that the protein was not detected with the bait.

Chains of the proteins cited; added tags and fusions are not shown. Residues count along the entry.
UniProt Q16602, residues 23-461: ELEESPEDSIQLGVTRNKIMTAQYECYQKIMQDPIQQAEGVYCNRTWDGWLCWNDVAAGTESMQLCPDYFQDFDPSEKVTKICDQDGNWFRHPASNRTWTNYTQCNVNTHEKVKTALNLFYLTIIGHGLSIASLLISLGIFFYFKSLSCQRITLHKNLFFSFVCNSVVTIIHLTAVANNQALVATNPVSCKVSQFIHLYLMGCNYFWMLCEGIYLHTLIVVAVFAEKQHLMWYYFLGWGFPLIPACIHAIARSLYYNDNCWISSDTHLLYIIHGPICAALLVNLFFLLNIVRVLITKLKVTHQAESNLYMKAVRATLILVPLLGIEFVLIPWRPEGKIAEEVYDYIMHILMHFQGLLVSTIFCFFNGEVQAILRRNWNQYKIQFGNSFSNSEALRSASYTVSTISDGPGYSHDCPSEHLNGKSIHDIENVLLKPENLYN
UniProt Q13555: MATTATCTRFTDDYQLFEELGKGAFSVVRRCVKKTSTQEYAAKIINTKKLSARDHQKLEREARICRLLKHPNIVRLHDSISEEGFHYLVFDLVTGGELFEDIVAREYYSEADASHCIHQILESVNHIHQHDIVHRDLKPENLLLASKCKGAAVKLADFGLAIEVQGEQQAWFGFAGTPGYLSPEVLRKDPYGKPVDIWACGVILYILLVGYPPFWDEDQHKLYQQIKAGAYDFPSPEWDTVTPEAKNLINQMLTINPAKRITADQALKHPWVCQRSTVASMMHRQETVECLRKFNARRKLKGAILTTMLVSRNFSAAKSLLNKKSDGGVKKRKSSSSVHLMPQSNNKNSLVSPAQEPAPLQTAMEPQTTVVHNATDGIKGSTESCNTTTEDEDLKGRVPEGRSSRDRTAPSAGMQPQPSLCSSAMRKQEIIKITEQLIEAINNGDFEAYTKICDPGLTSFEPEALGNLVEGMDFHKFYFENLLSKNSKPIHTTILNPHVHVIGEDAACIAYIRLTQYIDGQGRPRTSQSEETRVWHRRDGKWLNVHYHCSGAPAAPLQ
UniProt P27824, residues 21-592: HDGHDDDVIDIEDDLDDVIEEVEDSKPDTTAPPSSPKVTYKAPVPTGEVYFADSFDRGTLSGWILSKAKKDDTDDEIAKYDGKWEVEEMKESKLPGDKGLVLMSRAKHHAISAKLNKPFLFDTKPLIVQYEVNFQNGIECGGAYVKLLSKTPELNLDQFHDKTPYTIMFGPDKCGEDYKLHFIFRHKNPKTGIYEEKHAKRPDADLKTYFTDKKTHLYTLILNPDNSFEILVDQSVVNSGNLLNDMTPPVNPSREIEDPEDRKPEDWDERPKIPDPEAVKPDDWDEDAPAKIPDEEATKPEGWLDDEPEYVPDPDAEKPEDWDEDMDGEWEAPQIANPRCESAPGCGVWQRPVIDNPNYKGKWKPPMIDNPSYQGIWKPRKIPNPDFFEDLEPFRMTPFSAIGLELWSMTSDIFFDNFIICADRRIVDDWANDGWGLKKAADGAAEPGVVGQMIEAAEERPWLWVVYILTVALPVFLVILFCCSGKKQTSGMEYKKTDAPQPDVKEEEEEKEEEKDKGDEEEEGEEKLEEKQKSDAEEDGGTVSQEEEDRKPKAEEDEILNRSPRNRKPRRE
UniProt Q13200: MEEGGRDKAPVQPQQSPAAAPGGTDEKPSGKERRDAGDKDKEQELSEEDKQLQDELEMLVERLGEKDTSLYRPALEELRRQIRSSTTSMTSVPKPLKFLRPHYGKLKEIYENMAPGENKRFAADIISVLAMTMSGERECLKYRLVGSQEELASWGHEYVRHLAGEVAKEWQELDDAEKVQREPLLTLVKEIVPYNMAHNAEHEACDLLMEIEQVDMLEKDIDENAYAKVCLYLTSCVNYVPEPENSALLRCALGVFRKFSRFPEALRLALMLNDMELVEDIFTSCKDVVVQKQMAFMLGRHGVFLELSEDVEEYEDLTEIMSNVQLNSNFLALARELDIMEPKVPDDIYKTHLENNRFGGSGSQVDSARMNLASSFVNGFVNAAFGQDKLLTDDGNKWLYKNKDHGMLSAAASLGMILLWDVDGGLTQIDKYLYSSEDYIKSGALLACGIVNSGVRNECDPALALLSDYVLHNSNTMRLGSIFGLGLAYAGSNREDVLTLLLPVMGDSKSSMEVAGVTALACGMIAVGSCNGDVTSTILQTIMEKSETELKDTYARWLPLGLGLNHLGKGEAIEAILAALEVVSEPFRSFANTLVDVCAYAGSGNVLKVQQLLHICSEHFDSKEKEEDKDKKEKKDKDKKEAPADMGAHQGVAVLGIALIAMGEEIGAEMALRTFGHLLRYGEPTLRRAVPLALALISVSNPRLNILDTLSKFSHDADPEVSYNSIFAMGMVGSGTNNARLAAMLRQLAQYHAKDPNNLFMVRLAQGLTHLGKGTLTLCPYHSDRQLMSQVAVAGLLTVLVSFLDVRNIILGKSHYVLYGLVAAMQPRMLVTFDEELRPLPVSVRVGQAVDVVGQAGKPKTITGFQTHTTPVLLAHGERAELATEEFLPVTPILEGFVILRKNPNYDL
UniProt Q13557: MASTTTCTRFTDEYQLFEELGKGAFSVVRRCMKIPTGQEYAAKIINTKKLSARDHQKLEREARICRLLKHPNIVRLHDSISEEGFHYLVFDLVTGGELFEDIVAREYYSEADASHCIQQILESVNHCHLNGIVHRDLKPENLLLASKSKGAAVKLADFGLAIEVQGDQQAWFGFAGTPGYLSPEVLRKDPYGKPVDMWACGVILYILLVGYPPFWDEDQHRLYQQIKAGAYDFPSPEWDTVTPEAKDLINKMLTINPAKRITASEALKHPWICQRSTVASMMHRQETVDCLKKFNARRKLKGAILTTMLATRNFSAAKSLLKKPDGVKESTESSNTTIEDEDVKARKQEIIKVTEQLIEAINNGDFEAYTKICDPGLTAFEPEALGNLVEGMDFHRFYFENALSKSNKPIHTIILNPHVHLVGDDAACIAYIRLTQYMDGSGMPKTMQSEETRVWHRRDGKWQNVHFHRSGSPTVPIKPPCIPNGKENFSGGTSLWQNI
UniProt P51784: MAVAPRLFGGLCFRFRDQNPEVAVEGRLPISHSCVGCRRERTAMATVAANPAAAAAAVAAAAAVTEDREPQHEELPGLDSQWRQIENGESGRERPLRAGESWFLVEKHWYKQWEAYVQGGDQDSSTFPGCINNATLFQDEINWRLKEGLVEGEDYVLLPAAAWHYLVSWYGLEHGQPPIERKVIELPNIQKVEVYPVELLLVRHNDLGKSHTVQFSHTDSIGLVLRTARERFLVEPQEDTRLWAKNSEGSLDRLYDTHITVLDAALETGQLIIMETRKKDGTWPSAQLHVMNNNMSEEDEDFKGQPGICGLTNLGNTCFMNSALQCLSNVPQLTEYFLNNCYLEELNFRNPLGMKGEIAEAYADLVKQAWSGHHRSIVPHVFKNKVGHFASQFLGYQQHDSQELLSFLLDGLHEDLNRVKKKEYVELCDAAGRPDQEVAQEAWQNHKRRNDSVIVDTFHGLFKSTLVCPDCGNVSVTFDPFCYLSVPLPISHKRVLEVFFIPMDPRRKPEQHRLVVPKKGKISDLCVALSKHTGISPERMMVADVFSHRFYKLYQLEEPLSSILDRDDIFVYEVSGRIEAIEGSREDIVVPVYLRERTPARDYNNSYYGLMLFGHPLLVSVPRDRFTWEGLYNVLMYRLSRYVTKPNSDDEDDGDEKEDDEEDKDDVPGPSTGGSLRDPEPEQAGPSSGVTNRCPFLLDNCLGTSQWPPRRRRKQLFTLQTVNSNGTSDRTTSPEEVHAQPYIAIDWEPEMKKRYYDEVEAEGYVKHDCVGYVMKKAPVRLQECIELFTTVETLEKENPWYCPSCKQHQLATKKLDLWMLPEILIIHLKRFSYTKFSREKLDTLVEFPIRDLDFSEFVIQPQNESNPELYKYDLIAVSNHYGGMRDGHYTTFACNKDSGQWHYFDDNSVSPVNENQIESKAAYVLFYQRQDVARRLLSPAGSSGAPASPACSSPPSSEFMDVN
UniProt Q9Y5S2: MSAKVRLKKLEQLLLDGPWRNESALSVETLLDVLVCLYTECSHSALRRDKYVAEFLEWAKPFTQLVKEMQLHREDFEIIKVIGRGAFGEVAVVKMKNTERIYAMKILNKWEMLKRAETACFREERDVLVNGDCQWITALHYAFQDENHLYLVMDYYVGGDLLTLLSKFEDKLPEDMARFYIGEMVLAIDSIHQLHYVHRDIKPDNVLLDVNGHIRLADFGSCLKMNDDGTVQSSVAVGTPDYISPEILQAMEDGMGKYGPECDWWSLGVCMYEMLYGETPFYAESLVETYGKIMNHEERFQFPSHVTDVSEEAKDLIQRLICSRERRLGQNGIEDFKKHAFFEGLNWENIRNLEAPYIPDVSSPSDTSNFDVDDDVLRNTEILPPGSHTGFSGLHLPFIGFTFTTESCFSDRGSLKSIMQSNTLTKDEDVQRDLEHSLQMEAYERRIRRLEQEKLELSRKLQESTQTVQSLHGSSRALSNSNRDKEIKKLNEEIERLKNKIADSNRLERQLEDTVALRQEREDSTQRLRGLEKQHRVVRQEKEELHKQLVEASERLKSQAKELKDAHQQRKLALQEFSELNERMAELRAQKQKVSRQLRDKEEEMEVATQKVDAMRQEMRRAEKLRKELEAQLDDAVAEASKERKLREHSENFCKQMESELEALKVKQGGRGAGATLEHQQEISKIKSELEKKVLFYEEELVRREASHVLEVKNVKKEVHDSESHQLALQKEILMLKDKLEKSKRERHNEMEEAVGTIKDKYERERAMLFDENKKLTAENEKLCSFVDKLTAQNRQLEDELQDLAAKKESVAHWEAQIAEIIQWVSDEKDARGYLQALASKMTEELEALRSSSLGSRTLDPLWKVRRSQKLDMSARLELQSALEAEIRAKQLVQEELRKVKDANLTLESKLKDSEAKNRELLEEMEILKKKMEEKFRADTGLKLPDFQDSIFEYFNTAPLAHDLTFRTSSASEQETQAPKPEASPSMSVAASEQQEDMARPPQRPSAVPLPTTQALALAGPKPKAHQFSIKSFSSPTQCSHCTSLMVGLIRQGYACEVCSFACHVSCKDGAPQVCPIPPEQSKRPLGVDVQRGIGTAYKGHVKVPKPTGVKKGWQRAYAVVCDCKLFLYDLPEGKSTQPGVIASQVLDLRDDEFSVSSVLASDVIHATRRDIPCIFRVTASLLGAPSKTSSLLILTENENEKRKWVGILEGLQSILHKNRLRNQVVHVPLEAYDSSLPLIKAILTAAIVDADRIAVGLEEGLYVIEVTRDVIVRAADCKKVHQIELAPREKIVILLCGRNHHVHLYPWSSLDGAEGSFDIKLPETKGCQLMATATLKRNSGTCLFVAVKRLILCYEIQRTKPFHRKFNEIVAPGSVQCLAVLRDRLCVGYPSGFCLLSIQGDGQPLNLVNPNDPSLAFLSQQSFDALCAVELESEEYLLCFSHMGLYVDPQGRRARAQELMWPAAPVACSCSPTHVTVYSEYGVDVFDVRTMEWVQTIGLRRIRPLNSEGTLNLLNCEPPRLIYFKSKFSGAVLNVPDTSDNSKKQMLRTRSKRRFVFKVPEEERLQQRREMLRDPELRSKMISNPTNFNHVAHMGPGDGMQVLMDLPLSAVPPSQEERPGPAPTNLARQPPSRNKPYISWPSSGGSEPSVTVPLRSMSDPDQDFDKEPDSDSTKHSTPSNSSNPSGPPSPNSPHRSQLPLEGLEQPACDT
UniProt P49407: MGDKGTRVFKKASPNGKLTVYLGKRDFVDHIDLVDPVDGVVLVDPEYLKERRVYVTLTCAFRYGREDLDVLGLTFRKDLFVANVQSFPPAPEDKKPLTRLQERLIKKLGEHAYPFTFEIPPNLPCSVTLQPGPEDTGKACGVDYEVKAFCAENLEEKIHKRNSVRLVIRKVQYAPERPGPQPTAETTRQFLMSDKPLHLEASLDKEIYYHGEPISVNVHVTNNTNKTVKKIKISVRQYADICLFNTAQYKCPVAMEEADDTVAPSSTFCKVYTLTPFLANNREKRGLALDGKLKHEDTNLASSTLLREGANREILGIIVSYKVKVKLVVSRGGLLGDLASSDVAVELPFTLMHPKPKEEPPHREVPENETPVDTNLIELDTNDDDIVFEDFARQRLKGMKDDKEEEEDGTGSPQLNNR

B1: GYG1 (enzyme, UniProt P46976 1-350)
chain: MTDQAFVTLTTNDAYAKGALVLGSSLKQHRTTRRLVVLATPQVSDSMRKVLETVFDEVIMVDVLDSGDSAHLTLMKRPELGVTLTKLHCWSLTQYSKCVFMDADTLVLANIDDLFDREELSAAPDPGWPDCFNSGVFVYQPSVETYNQLLHLASEQGSFDGGDQGILNTFFSSWATTDIRKHLPFIYNLSSISIYSYLPAFKVFGASAKVVHFLGRVKPWNYTYDPKTKSVKSEAHDPNMTHPEFLILWWNIFTTNVLPLLQQFGLVKDTCSYVNVLSDLVYTLAFSCGFCRKEDVSGAISHLSLGEIPAMAQPFVSSEERKERWEQGQADYMGADSFDNIKRKLDTYLQ
B2: FILIP1L (protein, UniProt Q4L180 1-1135)
chain: MRSRGSDTEGSAQKKFPRHTKGHSFQGPKNMKHRQQDKDSPSESDVILPCPKAEKPHSGNGHQAEDLSRDDLLFLLSILEGELQARDEVIGILKAEKMDLALLEAQYGFVTPKKVLEALQRDAFQAKSTPWQEDIYEKPMNELDKVVEKHKESYRRILGQLLVAEKSRRQTILELEEEKRKHKEYMEKSDEFICLLEQECERLKKLIDQEIKSQEEKEQEKEKRVTTLKEELTKLKSFALMVVDEQQRLTAQLTLQRQKIQELTTNAKETHTKLALAEARVQEEEQKATRLEKELQTQTTKFHQDQDTIMAKLTNEDSQNRQLQQKLAALSRQIDELEETNRSLRKAEEELQDIKEKISKGEYGNAGIMAEVEELRKRVLDMEGKDEELIKMEEQCRDLNKRLERETLQSKDFKLEVEKLSKRIMALEKLEDAFNKSKQECYSLKCNLEKERMTTKQLSQELESLKVRIKELEAIESRLEKTEFTLKEDLTKLKTLTVMFVDERKTMSEKLKKTEDKLQAASSQLQVEQNKVTTVTEKLIEETKRALKSKTDVEEKMYSVTKERDDLKNKLKAEEEKGNDLLSRVNMLKNRLQSLEAIEKDFLKNKLNQDSGKSTTALHQENNKIKELSQEVERLKLKLKDMKAIEDDLMKTEDEYETLERRYANERDKAQFLSKELEHVKMELAKYKLAEKTETSHEQWLFKRLQEEEAKSGHLSREVDALKEKIHEYMATEDLICHLQGDHSVLQKKLNQQENRNRDLGREIENLTKELERYRHFSKSLRPSLNGRRISDPQVFSKEVQTEAVDNEPPDYKSLIPLERAVINGQLYEESENQDEDPNDEGSVLSFKCSQSTPCPVNRKLWIPWMKSKEGHLQNGKMQTKPNANFVQPGDLVLSHTPGQPLHIKVTPDHVQNTATLEITSPTTESPHSYTSTAVIPNCGTPKQRITILQNASITPVKSKTSTEDLMNLEQGMSPITMATFARAQTPESCGSLTPERTMSPIQVLAVTGSASSPEQGRSPEPTEISAKHAIFRVSPDRQSSWQFQRSNSNSSSVITTEDNKIHIHLGSPYMQAVASPVRPASPSAPLQDNRTQGLINGALNKTTNKVTSSITITPTATPLPRQSQITVEPLLLPH
B3: PANK4 (protein, UniProt Q9NVE7 1-773)
chain: MAECGASGSGSSGDSLDKSITLPPDEIFRNLENAKRFAIDIGGSLTKLAYYSTVQHKVAKVRSFDHSGKDTEREHEPPYEISVQEEITARLHFIKFENTYIEACLDFIKDHLVNTETKVIQATGGGAYKFKDLIEEKLRLKVDKEDVMTCLIKGCNFVLKNIPHEAFVYQKDSDPEFRFQTNHPHIFPYLLVNIGSGVSIVKVETEDRFEWVGGSSIGGGTFWGLGALLTKTKKFDELLHLASRGQHSNVDMLVRDVYGGAHQTLGLSGNLIASSFGKSATADQEFSKEDMAKSLLHMISNDIGQLACLHARLHSLDRVYFGGFFIRGHPVTMRTITYSINFFSKGEVQALFLRHEGYLGAIGAFLKGAEQDNPNQYSWGENYAGSSGLMSASPELGPAQRARSGTFDLLEMDRLERPLVDLPLLLDPPSYVPDTVDLTDDALARKYWLTCFEEALDGVVKRAVASQPDSVDAAERAEKFRQKYWNKLQTLRQQPFAYGTLTVRSLLDTREHCLNEFNFPDPYSKVKQRENGVALRCFPGVVRSLDALGWEERQLALVKGLLAGNVFDWGAKAVSAVLESDPYFGFEEAKRKLQERPWLVDSYSEWLQRLKGPPHKCALIFADNSGIDIILGVFPFVRELLLRGTEVILACNSGPALNDVTHSESLIVAERIAGMDPVVHSALQEERLLLVQTGSSSPCLDLSRLDKGLAALVRERGADLVVIEGMGRAVHTNYHAALRCESLKLAVIKNAWLAERLGGRLFSVIFKYEVPAE
B4: RASIP1 (protein, UniProt Q5U651 1-963)
chain: MLSGERKEGGSPRFGKLHLPVGLWINSPRKQLAKLGRRWPSAASVKSSSSDTGSRSSEPLPPPPPHVELRRVGAVKAAGGASGSRAKRISQLFRGSGTGTTGSSGAGGPGTPGGAQRWASEKKLPELAAGVAPEPPLATRATAPPGVLKIFGAGLASGANYKSVLATARSTARELVAEALERYGLAGSPGGGPGESSCVDAFALCDALGRPAAAGVGSGEWRAEHLRVLGDSERPLLVQELWRARPGWARRFELRGREEARRLEQEAFGAADSEGTGAPSWRPQKNRSRAASGGAALASPGPGTGSGAPAGSGGKERSENLSLRRSVSELSLQGRRRRQQERRQQALSMAPGAADAQIGTADPGDFDQLTQCLIQAPSNRPYFLLLQGYQDAQDFVVYVMTREQHVFGRGGNSSGRGGSPAPYVDTFLNAPDILPRHCTVRAGPEHPAMVRPSRGAPVTHNGCLLLREAELHPGDLLGLGEHFLFMYKDPRTGGSGPARPPWLPARPGATPPGPGWAFSCRLCGRGLQERGEALAAYLDGREPVLRFRPREEEALLGEIVRAAAAGSGDLPPLGPATLLALCVQHSARELELGHLPRLLGRLARLIKEAVWEKIKEIGDRQPENHPEGVPEVPLTPEAVSVELRPLMLWMANTTELLSFVQEKVLEMEKEADQEDPQLCNDLELCDEAMALLDEVIMCTFQQSVYYLTKTLYSTLPALLDSNPFTAGAELPGPGAELGAMPPGLRPTLGVFQAALELTSQCELHPDLVSQTFGYLFFFSNASLLNSLMERGQGRPFYQWSRAVQIRTNLDLVLDWLQGAGLGDIATEFFRKLSMAVNLLCVPRTSLLKASWSSLRTDHPTLTPAQLHHLLSHYQLGPGRGPPAAWDPPPAEREAVDTGDIFESFSSHPPLILPLGSSRLRLTGPVTDDALHRELRRLRRLLWDLEQQELPANYRHGPPVATSP
B5: aconitase 1 (enzyme, UniProt P21399 1-889)
chain: MSNPFAHLAEPLDPVQPGKKFFNLNKLEDSRYGRLPFSIRVLLEAAIRNCDEFLVKKQDIENILHWNVTQHKNIEVPFKPARVILQDFTGVPAVVDFAAMRDAVKKLGGDPEKINPVCPADLVIDHSIQVDFNRRADSLQKNQDLEFERNRERFEFLKWGSQAFHNMRIIPPGSGIIHQVNLEYLARVVFDQDGYYYPDSLVGTDSHTTMIDGLGILGWGVGGIEAEAVMLGQPISMVLPQVIGYRLMGKPHPLVTSTDIVLTITKHLRQVGVVGKFVEFFGPGVAQLSIADRATIANMCPEYGATAAFFPVDEVSITYLVQTGRDEEKLKYIKKYLQAVGMFRDFNDPSQDPDFTQVVELDLKTVVPCCSGPKRPQDKVAVSDMKKDFESCLGAKQGFKGFQVAPEHHNDHKTFIYDNTEFTLAHGSVVIAAITSCTNTSNPSVMLGAGLLAKKAVDAGLNVMPYIKTSLSPGSGVVTYYLQESGVMPYLSQLGFDVVGYGCMTCIGNSGPLPEPVVEAITQGDLVAVGVLSGNRNFEGRVHPNTRANYLASPPLVIAYAIAGTIRIDFEKEPLGVNAKGQQVFLKDIWPTRDEIQAVERQYVIPGMFKEVYQKIETVNESWNALATPSDKLFFWNSKSTYIKSPPFFENLTLDLQPPKSIVDAYVLLNLGDSVTTDHISPAGNIARNSPAARYLTNRGLTPREFNSYGSRRGNDAVMARGTFANIRLLNRFLNKQAPQTIHLPSGEILDVFDAAERYQQAGLPLIVLAGKEYGAGSSRDWAAKGPFLLGIKAVLAESYERIHRSNLVGMGVIPLEYLPGENADALGLTGQERYTIIIPENLKPQMKVQVKLDTGKTFQAVMRFDTDVELTYFLNGGILNYMIRKMAK
B6: protein ERGIC-53 (protein, UniProt P49257 31-510)
chain: DGVGGDPAVALPHRRFEYKYSFKGPHLVQSDGTVPFWAHAGNAIPSSDQIRVAPSLKSQRGSVWTKTKAAFENWEVEVTFRVTGRGRIGADGLAIWYAENQGLEGPVFGSADLWNGVGIFFDSFDNDGKKNNPAIVIIGNNGQIHYDHQNDGASQALASCQRDFRNKPYPVRAKITYYQNTLTVMINNGFTPDKNDYEFCAKVENMIIPAQGHFGISAATGGLADDHDVLSFLTFQLTEPGKEPPTPDKEISEKEKEKYQEEFEHFQQELDKKKEEFQKGHPDLQGQPAEEIFESVGDRELRQVFEGQNRIHLEIKQLNRQLDMILDEQRRYVSSLTEEISKRGAGMPGQHGQITQQELDTVVKTQHEILRQVNEMKNSMSETVRLVSGMQHPGSAGGVYETTQHFIDIKEHLHIVKRDIDNLVQRNMPSNEKPKCPELPPFPSCLSTVHFIIFVVVQTVLFIGYIMYRSQQEAAAKKFF

What follows are molecules tested against calcitonin receptor-like receptor (human (endogenous in HDLEC)) (UniProt Q16602) (assay: affinity purification with mass spectrometry).

binding | Molecule
binds | CAMK2G (from UniProt Q13555 1-558) (enzyme)
binds | CANX (from UniProt P27824 21-592)
binds | PSMD2 (from UniProt Q13200 1-908)
binds | calcium/calmodulin dependent protein kinase II delta (from UniProt Q13557 1-499) (enzyme)
binds | deubiquitinase USP11 (from UniProt P51784 1-963) (enzyme)
binds | serine/threonine-protein kinase MRCK beta (from UniProt Q9Y5S2 1-1711) (enzyme)
binds | valosin containing protein (from UniProt P55072 1-806) (enzyme)
no binding | β-arrestin 1 (from UniProt P49407 1-418)

Biological target: calcitonin receptor-like receptor (human (endogenous in HDLEC)) (UniProt Q16602)
Test: affinity purification with mass spectrometry
Remark: another data set of the same source

binding | Molecule
binds | B1
binds | B2
binds | B3
binds | B4
binds | B5
binds | B6
